Experimental data: patent US9567300B2, “Hexahydropentaleno derivatives, preparation method and use in medicine thereof” (SUNSHINE LAKE PHARMA CO., LTD., priority 2012, dated 2017)
For at least one compound, name, drawing or mass did not settle the structure.

System: normal C57BL/6 mice
Experiment: Effects of DPP-IV inhibitors on the blood glucose of normal C57BL/6 mice (oral glucose tolerance)
Type: in vivo
Settings: oral 5 mg/kg, conclusion in words
Protocol: The effects of the test compounds on the oral glucose tolerance of normal C57BL/6 mice were observed, and the hypoglycemic activities of these compounds in vivo were evaluated preliminarily.
Preparation procedure: Drugs were accurately weighed, and 5 mg of compounds of examples 3, 9 15, 16 and 17 were dissolved respectively in 20 mL of normal saline to obtain 0.25 mg/mL solutions.
Administrated Dose: The oral dose was 5 mg/kg and the gavage dose was 0.02 mL/g.
Test Method: The normal male C57BL/6 mice were grouped randomly into a blank control group, a positive control group, and treatment groups having 7 mice each group.
Administration and Serum Glucose Determination: C57BL/6 mice of each group were fasted for 18 hours before the experiment. The blood was drawn from the caudal vein of the mice and the glucose level was measured by using a blood-glucose meter. […] The blood glucose level (0 min) of positive control group was measured in 60 min after administration. The blood glucose levels (0 min) of the other groups were measured in 30 min after administration, and then glucose (2.5 g/kg) was administered to the mice through gavage. […] The blood glucose levels of C57BL/6 mice were measured continuously by blood-glucose meter. […]
2. […] The data were analyzed by SPSS 16.0 software. […]

C[C@@]1(NCC(=O)N2C[C@@H](F)C[C@H]2C#N)C[C@H]2C[C@@H](O)C[C@H]2C1 [Example 3, (2S,4S)-4-fluoro-1-(2-(((2r,3aR,5S,6aS)-5-hydroxy-2-methyloctahydropentalen-2-yl)amino)acetyl)pyrrolidine-2-carbonitrile]
hypoglycemic activities for C57BL/6 mice: good hypoglycemic activities
